The test is described as follows: qHTS Assay to Find Inhibitors of Chronic Active B-Cell Receptor Signaling. Conditions: ABC-DLBCL IkBa-CBG/CBR reporter, luminescence ratio (green luciferase fused to IkBa over red control in TMD8 lymphoma cells), 4 h. In a few lines:
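Doxycycline induced both beetle luciferases in TMD8 lymphoma cells; IKK-driven degradation limits the IkappaBalpha-fused green signal, while red luminescence normalises for cell number and nonspecific effects. Compounds tested up to 46 uM, 4 hrs.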

[1] abbreviates: measured here: CBR red luminescence, cell number.
[2] abbreviates: measured here: IkBa-CBG green luminescence.

The structures appear in SMILES notation. Some of the results follow. Further columns of the screen follow, without active or inactive calls. The list favours compounds with an active or inconclusive main result. Words in brackets tell the shape of the fitted curve; partial curves, single points and poor fits give uncertain potencies.

Broadly, the AC50 is the concentration giving half of the maximal activity seen. With `CCc1nnc(NC(=O)CSc2nnc(-c3ccccc3OC)n2-c2ccc(C)cc2)s1`, the concentration at half-maximal activity (AC50) under setting [1] is 0.651 µM [falling, partial curve, poor fit].

In the case of `COc1cccc(CN2CCC(C(=O)N3CCN(c4ccccc4F)CC3)CC2)c1OC`, under setting [1], the AC50 is 18.4 µM [rising, partial curve, poor fit]. On the same count and under the same terms, with `Cc1ccc(NC(=O)C2CCN(S(=O)(=O)c3ccc4c(c3)CCCC(=O)N4)CC2)c(Br)c1` the figure was 1 µM [rising, full curve, poor fit]; with `Cc1ccccc1N1C(=O)Cc2ccccc2C1=O`, 35.5 µM [falling, single point]. As to `O=C(c1ccco1)N1CCN(C(=O)c2cccs2)CC1`, under setting [1], the AC50 was 2.06 µM [rising, single point]. On the same count and under the same terms, the result for `CCn1c(=O)c(C(=O)Nc2ccc(C)cc2)c(O)c2ccccc21` reads 0.708 µM [falling, full curve]; that for `Nc1nc2nc(-c3cccs3)cc(C(F)(F)F)n2n1`, 1.41 µM [rising, full curve, poor fit]. Same read-out and setting: the result for `CC1CCN(c2ccc(-c3cccs3)nn2)CC1` reads 3.16 µM [falling, full curve]; that for `Cc1ccccc1OCC(=O)N/N=C/c1ccc(Sc2nc3ccccc3s2)o1`, 32.6 µM [rising, partial curve, poor fit]; that for `CCc1ccccc1-n1c(SCC(=O)Nc2ccc(C)cc2)nc2n[nH]c(C)c2c1=N`, 17.8 µM [falling, single point]. Same read-out and setting: with `Cc1ccc(NC(=O)CC2(CC(=O)O)CCCC2)c(C)c1` the figure was 3.55 µM [falling, single point]. Take `O=C1Nc2ccccc2C12OCC(COc1ccc(Cl)cc1)O2` (stereo not given): the AC50 under setting [1] is 0.366 µM [rising, full curve, poor fit].

As for `Cc1cccc(C)c1OCC(=O)Nc1ccc2c(c1)OCCO2`, the concentration at half-maximal activity (AC50) under setting [1] was 3.98 µM [falling, full curve, poor fit]. On the same count and under the same terms, with `COc1ccc(CNC(=O)CSc2ncnc3nc[nH]c23)cc1` the figure was 12.6 µM [rising, partial curve, poor fit]; with `CCC/C(C)=N/NC(=O)c1ccccc1O`, 1.46 µM [falling, full curve, poor fit]. With `COC(=O)c1c(NC(=O)CN2CCN(c3ncccn3)CC2)sc(C(N)=O)c1C`, the AC50 under setting [1] is 7.94 µM [rising, partial curve]. The same measure, in the same setting: the result for `CCOc1ccc2[nH]c(=O)c(CN(CC3COCCO3)C(=O)c3ccc(C)cc3)cc2c1` (stereo not given) reads 5.62 µM [falling, single point]; that for `Cc1ccc(S(=O)(=O)/N=C2/NC(=O)/C(=C\c3cc(Br)cc(Br)c3O)S2)cc1`, 15.8 µM [rising, single point]; that for `Cc1ccc(-c2nc3sc4c(c3c(=O)n2N)CCCC4)cc1`, 0.731 µM [rising, full curve, poor fit]. On the same count and under the same terms, with `C=C(C)CNC(=O)c1ccc(OC2CCN(S(=O)(=O)N(C)C)CC2)cc1` the figure was 15.8 µM [rising, single point]; with `O=C(Nc1ccccc1-c1ccccc1)c1cnccn1`, 3.16 µM [rising, full curve, poor fit]; with `COc1ccc(C(=O)Nc2ccc3c(c2)N(C2CCCC2)C(=O)c2ccccc2S3)cc1OC`, 3.16 µM [falling, partial curve, poor fit].

Turning to `CC(Nc1cccc([N+](=O)[O-])c1)C(=O)Nc1ccc(S(=O)(=O)N2CCCC2)cc1` (stereo not given), the AC50 under setting [1] is 32.6 µM [falling, single point].

For the molecule `CCOc1cccc(SCc2noc(C(=O)NC(C)C)c2C(=O)O)c1`, the AC50 under setting [1] was 35.5 µM [falling, single point]. Still for that read-out and setting: the result for `COc1ccc(C(=O)N/N=C/c2ccc(OC)c(OS(=O)(=O)c3ccccc3)c2)cc1` reads 7.31 µM [falling, partial curve]; that for `Cc1ccc(C)c2[nH]c(=O)c(CN(CCN3CCCC3)C(=O)Nc3ccc(F)cc3)cc12`, 22.4 µM [falling, single point]. Still for that read-out and setting: with `COc1cccc(/C=N/NC(=O)c2ccc3nc[nH]c3c2)c1O` the figure was 17.8 µM [falling, single point]; with `COc1ccc(S(=O)(=O)N2CCN(C(=O)CN3C(=O)NC4(CCCC4)C3=O)CC2)cc1`, 6.31 µM [falling, single point]; with `COC(=O)CSc1nnc(SCc2ccc(Cl)cc2)s1`, 9.2 µM [falling, partial curve, poor fit]. The same measure, in the same setting: with `Cc1c(NS(=O)(=O)c2ccc(N=NN(C)C)cc2)c(=O)n(-c2ccccc2)n1C` the figure was 22.4 µM [rising, partial curve, poor fit]; with `COc1cccc(Nc2nc(N)c([N+](=O)[O-])c(NCc3ccco3)n2)c1`, 6.31 µM [rising, single point].

Take `CC1CCN(C(=O)c2ccc(S(=O)(=O)Cc3cc(F)ccc3F)c([N+](=O)[O-])c2)CC1`: under setting [1], the half-maximal activity concentration (AC50) was 0.58 µM [falling, full curve, poor fit]. Still for that read-out and setting: the result for `CCOC(=O)c1cc(-c2ccccc2)n[nH]1` reads 35.5 µM [falling, single point]; that for `O=C(CSc1nc(=O)n(Cc2ccco2)c2c1CCC2)NCc1ccccc1Cl`, 14.1 µM [falling, single point]; that for `CSC(=NNC(=O)c1ccccc1O)SC`, 16.4 µM [falling, partial curve].

Consider `CCOC(=O)/C=C(\C)Sc1cc(=O)oc2ccccc12`, for which, under setting [1], the half-maximal activity concentration (AC50) was 16.4 µM [falling, partial curve, poor fit]. Regarding `CCCCCNC(=O)c1ccc2c(=O)[nH]c3c(C(=O)NCC4CCCO4)sc(=S)n3c2c1` (stereo not given), the AC50 under setting [1] is 18.4 µM [falling, partial curve]. Same read-out and setting: the result for `Cc1ccc(NC(=O)c2cnccn2)nc1` reads 0.501 µM [falling, full curve]; that for `COc1ccc(C(=O)OCC(=O)Nc2ccc(Cl)c(C(F)(F)F)c2)c(OC)c1OC`, 32.6 µM [falling, single point]. The same measure, in the same setting: with `O=C(NC(=S)Nc1ccccc1N1CCCC1)c1ccc(F)cc1` the figure was 22.4 µM [falling, single point]. The same measure, in the same setting: with `CCOc1ccc(CCNC(=O)CN2C(=O)CCSc3ccccc32)cc1` the figure was 1.26 µM [rising, full curve, poor fit].

In the case of `COc1ccc(Cc2nnc(N/N=C/c3ccc(O)cc3)[nH]c2=O)cc1OC`, under setting [1], the concentration at half-maximal activity (AC50) was 11.6 µM [falling, partial curve]. Still for that read-out and setting: with `CCN1C(=O)c2cccc3c(NC(=O)c4ccccc4)ccc1c23` the figure was 20.6 µM [rising, single point]; with `O=c1c(Cl)c(NCCO)cnn1-c1cccc(Cl)c1`, 0.1 µM [rising, full curve, poor fit]; with `COc1cc(C(=O)Nc2ccc(N(C)C)cc2)c([N+](=O)[O-])cc1OC`, 3.55 µM [rising, partial curve, poor fit]. Same read-out and setting: with `Clc1ccc(-n2ncc3c(NCc4ccco4)ncnc32)cc1` the figure was 11.2 µM [falling, partial curve, poor fit]. On the same count and under the same terms, the result for `CC(NC(=O)CNC(=O)c1ccccc1Br)c1cccs1` (stereo not given) reads 0.13 µM [rising, full curve, poor fit]; that for `CCn1cc(/C=N/NC(=O)c2ccc3c(c2)OCO3)c(C)n1`, 4.61 µM [falling, partial curve, poor fit].

As for `O=C1c2cc(F)ccc2OC2(CCNCC2)C12CC(c1ccccc1)=NO2` (stereo not given), under setting [1], the AC50 is 0.355 µM [falling, full curve, poor fit]. Same read-out and setting: the result for `COC(=O)c1sccc1NC(=O)c1ccncc1` reads 15.8 µM [rising, partial curve]. With `C(/C=C/c1ccco1)=N/N1CCN(c2ccccc2)CC1`, the AC50 under setting [1] was 3.16 µM [rising, full curve, poor fit]. The same measure, in the same setting: with `Nn1cnnc1SCC(=O)Nc1ccc(C2CCCCC2)cc1` the figure was 0.282 µM [rising, full curve, poor fit]; with `N#CC1=C(N)NC(SCC(=O)Nc2ccccc2)=C(C#N)C12CCCCC2`, 32.6 µM [falling, single point]; with `COc1cc(SC)ccc1C(=O)NCc1ccccc1`, 29.1 µM [falling, single point]. On to `Cc1cc(Nc2ccccc2)n(-c2nc3ccccc3[nH]2)n1`, for which, under setting [2], the AC50 is 32.6 µM [falling, partial curve, poor fit].

For `O=C(COc1ccc2ccccc2c1)N1CCNCC1`, the half-maximal activity concentration (AC50) under setting [1] was 22.4 µM [falling, single point]. On the same count and under the same terms, the result for `COc1ccc(CCNc2ncnc3c2c(-c2ccccc2)cn3-c2cccc(Cl)c2)cc1OC` reads 3.98 µM [rising, single point]; that for `CN1CCN(C(=O)CCN2C(=O)/C(=C/c3ccccc3Cl)SC2=S)CC1`, 35.5 µM [falling, partial curve, poor fit].

For `CN(C)c1ccc(C(CNS(=O)(=O)c2ccc(F)c(F)c2)c2c[nH]c3ccccc23)cc1` (stereo not given), the half-maximal activity concentration (AC50) is, setting by setting: under setting [1], 23.1 µM [falling, single point]; under setting [2], 25.9 µM [rising, partial curve, poor fit]. For `COc1cc(C2CC(=O)Oc3c(C(CCN4CCCC(C)C4)c4ccc(N(C)C)cc4)c(OC)cc(OC)c32)cc(OC)c1OC` (stereo not given), the concentration at half-maximal activity (AC50) under setting [1] was 4.47 µM [falling, full curve, poor fit]. Still for that read-out and setting: with `O=C(CCS(=O)(=O)c1cccc2nsnc12)NC1CCCCCC1` the figure was 0.0891 µM [falling, full curve, poor fit]; with `CCOC(=O)N1CCC(N(CCOC)C(=O)Nc2ccc(Cl)cc2)CC1`, 3.26 µM [rising, single point]; with `CCOc1ccc(C(=O)NCCC2=CCCCC2)cc1OCC`, 10 µM [rising, partial curve].

In the case of `Cc1ccc(C(=O)Nc2c(N)nc(SCC(=O)Nc3cc(C)on3)[nH]c2=O)cc1`, the half-maximal activity concentration (AC50) under setting [1] was 12.6 µM [falling, partial curve].
